In all, about 33,000 sequences were measured (“E-score (-0.5 to 0.5)”: median about -0.0014, highest 2% from about 0.25 on). The list shows a part of the results.
Target: T1, Cad1 (UniProt P24813)
T1 sequence: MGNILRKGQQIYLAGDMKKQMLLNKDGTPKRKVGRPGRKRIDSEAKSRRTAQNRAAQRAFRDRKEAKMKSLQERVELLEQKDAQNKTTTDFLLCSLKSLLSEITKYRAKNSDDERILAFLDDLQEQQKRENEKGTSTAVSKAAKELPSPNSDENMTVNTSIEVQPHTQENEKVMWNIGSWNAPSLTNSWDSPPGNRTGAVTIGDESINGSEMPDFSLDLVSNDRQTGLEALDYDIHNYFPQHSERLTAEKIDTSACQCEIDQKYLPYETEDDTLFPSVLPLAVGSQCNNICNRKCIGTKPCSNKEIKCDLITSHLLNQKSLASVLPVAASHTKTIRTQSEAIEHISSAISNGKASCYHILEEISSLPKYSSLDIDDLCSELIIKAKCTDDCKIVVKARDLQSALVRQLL
Assay: PBM E-score (8-mer binding enrichment) (E-score (-0.5 to 0.5)); higher = stronger / more preferred TF binding
Conditions: protein concentration: 100 nM; construct: GST-full length
Protocol: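 Universal 'all 10-mer' protein binding microarrays (Agilent AMADID 015681) probed with GST-tagged S. cerevisiae TFs (full-length or DBD) made by in vitro transcription/translation (PURExpress), about 100-200 nM. Bound TF was detected with fluorescent anti-GST. Each ungapped 8-mer (which stands for itself and its reverse complement) is scored by the PBM enrichment score (E-score), a modified Wilcoxon-Mann-Whitney statistic from -0.5 to +0.5, computed with the Universal PBM Analysis Suite. Scale: above 0.35 generally sequence-specific binding.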

Sequence | PBM E-score
CACAATAC | 0.0365
ACGTCGTC | 0.0395
AGCCAAAA | 0.0723
AGTTCGTA | 0.13
TGCGTCCA | 0.0378
ACCTTGGC | -0.233
CAAACATG | -0.0319
TGACGTAA | 0.138
AGGATTTG | 0.0147
CGCCTTGC | -0.164
CAGGCACC | -0.189
ATTTAGGA | 0.0482
AAGAGTCC | -0.14
GCCTCTGA | -0.113
ATAATGAA | 0.166
ATCCCTGC | -0.114
AATAATTC | 0.18
ACCCAGAA | 0.141
AGGACTAC | -0.238
AAATTAGG | 0.13
CCGCTCTC | -0.128
ACATGCCA | -0.0133

Sequence | PBM E-score
CTCGTCAG | -0.0379
CGGTCCCC | -0.23
ACGCGGAG | -0.061
GACCAGAC | -0.0441
GGGCCGTA | -0.0173
AGGAGATA | -0.137
CGTCTTAG | -0.177
AACTCAGG | -0.0816
CGCTGTAG | -0.0927
ATAGCAGG | -0.0469
TCACAACA | 0.224
GAATTTAA | 0.0361
GTCGCCAA | 0.0725
GATATTGA | 0.0604
TCGAGTCA | -0.11
TAGAAACA | -0.131
AAGAACTA | 0.0282
AGTGGCTC | -0.122
CATCTGTA | -0.0246
AGGTACAG | -0.122
CACCAACA | 0.0119
CTACGCAG | 0.0032

For reference, part of the list above:
Sequence | PBM E-score
AAATTAGG | 0.13
CCGCTCTC | -0.128
ACATGCCA | -0.0133
CTCGTCAG | -0.0379
CGGTCCCC | -0.23
ACGCGGAG | -0.061
GACCAGAC | -0.0441
GGGCCGTA | -0.0173
AGGAGATA | -0.137
CGTCTTAG | -0.177
AACTCAGG | -0.0816
CGCTGTAG | -0.0927
ATAGCAGG | -0.0469
TCACAACA | 0.224
GAATTTAA | 0.0361
GTCGCCAA | 0.0725
GATATTGA | 0.0604
TCGAGTCA | -0.11
TAGAAACA | -0.131
AAGAACTA | 0.0282
AGTGGCTC | -0.122
CATCTGTA | -0.0246
AGGTACAG | -0.122
CACCAACA | 0.0119
CTACGCAG | 0.0032

Next part

Sequence | PBM E-score
CGTCTGGC | 0.0651
ATACACAA | 0.11
AAACGGGG | 0.133
AGGCTCCG | 0.111
CCGGCAGC | -0.0715
ATCGCAGC | 0.0906
GCTGTAAA | -0.115
AGCCGCGG | 0.0567
AGGACGGC | -0.136
ATTCGACA | -0.086
GCTAGGCA | -0.187
ACACCTTC | 0.104
GGGGGAGA | -0.406
CCAGCTGA | 0.155
CATAAAAC | 0.0149
AGGAAGGA | -0.346
AACCCTTA | 0.166
TACAGCAA | 0.0251
AACTGAAC | -0.157
CGGGTTCC | 0.0289
CTACCACA | -0.185
CATGGCGA | 0.114

Sequence | PBM E-score
ATGTTGGG | -0.138
ATATGACA | 0.198
CCGCCTGC | -0.173
CCACTCAA | 0.078
GGTTGTCA | -0.0032
AGGACCTC | -0.253
AAGACTCT | 0.0337
TGCATAAA | 0.131
CCGACTTC | -0.22
GCATTTGA | 0.162
AGTTCCGA | 0.0228
ACTTCGTC | 0.0105
ACGGGGTA | -0.143
CGCGGCAC | -0.0774
AAAATTCC | 0.171
CACGAAGC | -0.00366
ACTTGCCT | -0.186
GTTTCCCA | 0.0983
GATGCGAC | -0.0578
ATGACAAC | 0.183

From the supplement of paper PMC3334620
